Assay [1] has as its target Flag-MafB (not stated (human or mouse cDNA cloned)) (UniProt Q9Y5Q3). The assay can be described thus: co-IP; Immunoprecipitation from 293ETN cells expressing Flag-MafB; immunoblot for LXRα.
The target is the same in assay [2]. The assay can be described thus: co-IP; Immunopurified Flag-MafB (M2 Affinity Gel) with Myc/DDK-LXRα obtained from OriGene; immunoprecipitation and immunoblot; both purified. A general note: In western blotting, separated proteins are transferred to a membrane and probed.

Amino acid sequences for entries named in this document (tags omitted).
UniProt Q9Y5Q3: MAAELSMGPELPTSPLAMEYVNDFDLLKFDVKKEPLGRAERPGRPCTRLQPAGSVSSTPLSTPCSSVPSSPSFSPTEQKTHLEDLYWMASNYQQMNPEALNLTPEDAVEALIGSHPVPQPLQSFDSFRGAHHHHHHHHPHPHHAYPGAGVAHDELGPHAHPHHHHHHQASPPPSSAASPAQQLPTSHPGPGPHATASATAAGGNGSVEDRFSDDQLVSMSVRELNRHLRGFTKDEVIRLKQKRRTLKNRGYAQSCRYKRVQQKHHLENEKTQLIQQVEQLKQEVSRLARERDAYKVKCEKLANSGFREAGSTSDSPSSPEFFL

The values that follow come from publication PMC5548719.

No constants are given. Whether binding was seen depends on the method and setting. For some assays here: In cells and extracts the contact can be indirect. Some binding calls cover weakened binding; strength is not graded here. For some assays here: Where a sequence is shown, tags or fusion partners need not be part of it.

B1: LXRα (in 293ETN cells) (protein, UniProt Q13133 1-447)
chain: MSLWLGAPVPDIPPDSAVELWKPGAQDASSQAQGGSSCILREEARMPHSAGGTAGVGLEAAEPTALLTRAEPPSEPTEIRPQKRKKGPAPKMLGNELCSVCGDKASGFHYNVLSCEGCKGFFRRSVIKGAHYICHSGGHCPMDTYMRRKCQECRLRKCRQAGMREECVLSEEQIRLKKLKRQEEEQAHATSLPPRASSPPQILPQLSPEQLGMIEKLVAAQQQCNRRSFSDRLRVTPWPMAPDPHSREARQQRFAHFTELAIVSVQEIVDFAKQLPGFLQLSREDQIALLKTSAIEVMLLETSRRYNPGSESITFLKDFSYNREDFAKAGLQVEFINPIFEFSRAMNELQLNDAEFALLIAISIFSADRPNVQDQLQVERLQHTYVEALHAYVSIHHPHDRLMFPRMLMKLVSLRTLSSVHSEQVFALRLQDKKLPPLLSEIWDVHE
In the case of B1, the binding entry in assay [1] is “binds”.

B2: Myc/DDK-LXRα (protein, UniProt Q13133 1-447)
chain: B1 chain
For B2, the binding entry in assay [2] is reported as “binds”.
